According to PubChem BioAssay AID328 (DTP/NCI, 2004):
The list shows only some results of the screen, not a fair sample: it gathers tests that were run many times, whatever their T/C, doses with no T/C, and many T/C values between a quarter and a half above the control. Further doses and runs are listed elsewhere. T/C gives the treated animals as a percentage of the vehicle group. Some entries give survivors of the animals treated and no T/C: the source files T/C as zero there, which appears to mark a toxic dose or a test without result, not a measured value. Some doses without a T/C left all or most animals alive at the check, yet need not have been tolerated: survival well below the control is almost never listed, so the zero probably covers shortened survival too. Survivors were counted at the toxicity check, usually on the fifth day, unless a day is given; later deaths do not show. Schedule codes are those of the source, read here as Q, the interval in days (D) or hours (H), X, the number of doses. Some entries hold several experiments; the results are listed from low to high. Where survival is the endpoint, the PubChem record calls one and a half times the control and up active, and a quarter to a half above the control has no call in these data; cut-offs in other NCI protocols can differ. Some T/C values carry the count of animals alive at the toxicity check (mostly the fifth day); where none is given, no animal had died by that day.

Tested on: BDF1 mice, P388 leukemia ip, median survival T/C
Test: NCI In Vivo Anticancer Drug Screen. Data for tumor model P388 Leukemia (intraperitoneal) in B6D2F1 (BDF1) mice
Details: T/C endpoint: median survival time, higher T/C = longer survival
Procedure, shortened: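 Reported as T/C, where T is the survival measurement in dosed animals and C the same measurement in vehicle controls.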

[1] = dose: 50.0 mg/kg/injection, schedule: Q04DX003 (ip), vehicle: saline
[2] = dose: 50.0 mg/kg/injection, schedule: Q01DX009 (ip), vehicle: Klucel (hydroxypropylcellulose) (HPC)

Nc1ccc2nc3ccc(N)cc3[n+](-c3ccccc3)c2c1
T/C (dose: 0.5 mg/kg/injection, schedule: Q03HX024 (ip), vehicle: saline): 130 % of control
T/C (dose: 1.0 mg/kg/injection, schedule: Q01DX009 (ip), vehicle: saline): 138 % of control
T/C (dose: 1.0 mg/kg/injection, schedule: Q03HX016 (ip), vehicle: saline): 130 % of control
T/C (dose: 2.0 mg/kg/injection, schedule: Q01DX009 (ip), vehicle: saline, evaluated on day 30): 144 % of control
T/C (dose: 2.0 mg/kg/injection, schedule: Q01DX009 (ip), vehicle: saline, evaluated on day 60): 148 % of control
T/C (dose: 2.0 mg/kg/injection, schedule: Q03HX008 (ip), vehicle: saline): 131 % of control [7 of 10 alive]
T/C (dose: 2.0 mg/kg/injection, schedule: Q03HX016 (ip), vehicle: saline): 133 % of control [9 of 10 alive]
T/C (dose: 2.25 mg/kg/injection, schedule: Q01DX009 (ip), vehicle: saline): 137 % of control
T/C (dose: 3.12 mg/kg/injection, schedule: Q01DX009 (ip), vehicle: saline): 130 % of control
T/C (dose: 4.0 mg/kg/injection, schedule: Q01DX009 (ip), vehicle: saline): 138 % of control [5 of 6 alive]
survivor count (dose: 4.0 mg/kg/injection, schedule: Q03HX008 (ip), vehicle: saline): 6 of 10
T/C (dose: 4.0 mg/kg/injection, schedule: Q04DX003 (ip), vehicle: saline): 125 % of control
T/C (dose: 4.1 mg/kg/injection, schedule: Q01DX009 (ip), vehicle: saline): 137 and 145 % of control
T/C (dose: 4.5 mg/kg/injection, schedule: Q01DX009 (ip), vehicle: saline): 133 and 141 % of control
T/C (dose: 6.0 mg/kg/injection, schedule: Q01DX009 (ip), vehicle: saline): 127 % of control
T/C (dose: 6.25 mg/kg/injection, schedule: Q01DX009 (ip), vehicle: saline): 133 [4 of 6 alive] and 147 % of control
T/C (dose: 8.0 mg/kg/injection, schedule: Q01DX009 (ip), vehicle: saline): 136 % of control
survivor count (dose: 8.0 mg/kg/injection, schedule: Q03HX008 (ip), vehicle: saline): 3 of 10
survivor count (dose: 8.0 mg/kg/injection, schedule: Q03HX016 (ip), vehicle: saline): 4 of 10
survivor count (dose: 8.0 mg/kg/injection, schedule: Q03HX024 (ip), vehicle: saline): 7 of 10
T/C (dose: 8.0 mg/kg/injection, schedule: Q04DX003 (ip), vehicle: saline): 132 % of control [9 of 10 alive]
T/C (dose: 9.3 mg/kg/injection, schedule: Q01DX009 (ip), vehicle: saline): 141 % of control
survivor count (dose: 12.5 mg/kg/injection, schedule: Q01DX009 (ip), vehicle: saline): 3 of 6
T/C (dose: 12.5 mg/kg/injection, schedule: Q04DX003 (ip), vehicle: saline): 145 % of control
T/C (dose: 16.0 mg/kg/injection, schedule: Q01DX001 (ip), vehicle: saline): 127 % of control
survivor count (dose: 16.0 mg/kg/injection, schedule: Q03HX008 (ip), vehicle: saline): 0 of 10
survivor count (dose: 16.0 mg/kg/injection, schedule: Q03HX016 (ip), vehicle: saline): 0 of 10
T/C (dose: 16.0 mg/kg/injection, schedule: Q04DX003 (ip), vehicle: saline): 138 % of control [9 of 10 alive]
survivor count (dose: 25.0 mg/kg/injection, schedule: Q01DX009 (ip), vehicle: saline): 3 of 6
survivor count (dose: 27.0 mg/kg/injection, schedule: Q01DX009 (ip), vehicle: saline): 0 of 6 and 3 of 6
survivor count (dose: 32.0 mg/kg/injection, schedule: Q01DX001 (ip), vehicle: saline): 5 of 10
survivor count (dose: 32.0 mg/kg/injection, schedule: Q01DX009 (ip), vehicle: saline): 2 of 10
survivor count (dose: 32.0 mg/kg/injection, schedule: Q03HX008 (ip), vehicle: saline): 0 of 10
T/C (dose: 32.0 mg/kg/injection, schedule: Q08DX002 (ip), vehicle: saline): 134 % of control [8 of 10 alive]
survivor count (dose: 40.0 mg/kg/injection, schedule: Q01DX009 (ip), vehicle: saline): 0 of 6 and 6 of 6
survivor count (dose: 50.0 mg/kg/injection, schedule: Q01DX009 (ip), vehicle: saline): 1 of 6
survivor count [1]: 5 of 6
survivor count (dose: 60.0 mg/kg/injection, schedule: Q01DX009 (ip), vehicle: saline): 4 of 6
survivor count (dose: 64.0 mg/kg/injection, schedule: Q01DX001 (ip), vehicle: saline): 3 of 10
survivor count (dose: 64.0 mg/kg/injection, schedule: Q04DX003 (ip), vehicle: saline): 4 of 10
survivor count (dose: 64.0 mg/kg/injection, schedule: Q08DX002 (ip), vehicle: saline): 0 of 10
survivor count (dose: 75.0 mg/kg/injection, schedule: Q04DX003 (ip), vehicle: saline): 0 of 6
survivor count (dose: 128.0 mg/kg/injection, schedule: Q01DX001 (ip), vehicle: saline): 0 of 10
survivor count (dose: 128.0 mg/kg/injection, schedule: Q08DX002 (ip), vehicle: saline): 0 of 10
survivor count (dose: 256.0 mg/kg/injection, schedule: Q01DX001 (ip), vehicle: saline): 0 of 10

CCCNC1=C(N2CC2)C(=O)C(NCCC)=C(N2CC2)C1=O
T/C (dose: 0.75 mg/kg/injection, schedule: Q01DX009 (ip), vehicle: saline): 128 and 146 % of control
T/C (dose: 1.5 mg/kg/injection, schedule: Q01DX009 (ip), vehicle: saline): 149 % of control
survivor count (dose: 12.0 mg/kg/injection, schedule: Q01DX009 (ip), vehicle: saline): 6 of 6

NC(=S)N1N=C(c2cccc([N+](=O)[O-])c2)CCC1=O
survivor count (dose: 200.0 mg/kg/injection, schedule: Q04DX003 (ip), vehicle: saline with Tween-80): 6 of 6

COc1cc(-c2ccc(N=Nc3c(O)c(C(=O)Nc4ccccc4OC)cc4ccccc34)c(OC)c2)ccc1N=Nc1c(O)c(C(=O)Nc2ccccc2OC)cc2ccccc12
survivor count (dose: 50.0 mg/kg/injection, schedule: Q01DX005 (ip), vehicle: saline with Tween-80): 5 of 5

Nc1cc2c(c(Cl)c1Br)-c1ccccc1C2=O
survivor count [2]: 6 of 6
survivor count (dose: 100.0 mg/kg/injection, schedule: Q01DX009 (ip), vehicle: Klucel (hydroxypropylcellulose) (HPC)): 5 of 6
survivor count (dose: 200.0 mg/kg/injection, schedule: Q01DX009 (ip), vehicle: Klucel (hydroxypropylcellulose) (HPC)): 5 of 6
survivor count (dose: 400.0 mg/kg/injection, schedule: Q01DX009 (ip), vehicle: Klucel (hydroxypropylcellulose) (HPC)): 0 of 6

Cc1cc(C)c(C)[nH]1
survivor count (dose: 100.0 mg/kg/injection, schedule: Q01DX009 (ip), vehicle: water): 1 of 6
survivor count (dose: 100.0 mg/kg/injection, schedule: Q04DX003 (ip), vehicle: water): 0 of 6

CC(=O)Nc1ccc2c(Nc3ccc(NS(C)(=O)=O)cc3)c3ccccc3nc2c1
T/C (dose: 3.75 mg/kg/injection, schedule: Q01DX009 (ip), vehicle: saline): 129 % of control
survivor count (dose: 10.0 mg/kg/injection, schedule: Q01DX009 (ip), vehicle: saline): 6 of 6
survivor count (dose: 20.0 mg/kg/injection, schedule: Q01DX009 (ip), vehicle: saline): 6 of 6
survivor count [1]: 6 of 6
survivor count (dose: 100.0 mg/kg/injection, schedule: Q04DX003 (ip), vehicle: saline): 6 of 6
survivor count (dose: 200.0 mg/kg/injection, schedule: Q04DX003 (ip), vehicle: saline): 6 of 6
survivor count (dose: 400.0 mg/kg/injection, schedule: Q04DX003 (ip), vehicle: saline): 6 of 6
T/C (dose: 60.0 micrograms/kg/injection, schedule: Q04DX003 (ip), vehicle: saline): 127 % of control

C1CCNCC1.O=C([CH-]C(=O)C(F)(F)F)c1ccc2c(c1)C(=O)c1ccccc1-2.O=C([CH-]C(=O)C(F)(F)F)c1ccc2c(c1)C(=O)c1ccccc1-2.O=C([CH-]C(=O)C(F)(F)F)c1ccc2c(c1)C(=O)c1ccccc1-2.O=C([CH-]C(=O)C(F)(F)F)c1ccc2c(c1)C(=O)c1ccccc1-2.[Eu+3]
survivor count [2]: 6 of 6
